From paper PMC6713331
No constants are given. Whether binding was seen depends on the method and setting. In cells and extracts the contact can be indirect. Some results given as binding are weak or reduced against the parent protein; the word gives no strength.

Protein sequences, listed by entry. Tags and fused reporters are not part of them.
UniProt P03220: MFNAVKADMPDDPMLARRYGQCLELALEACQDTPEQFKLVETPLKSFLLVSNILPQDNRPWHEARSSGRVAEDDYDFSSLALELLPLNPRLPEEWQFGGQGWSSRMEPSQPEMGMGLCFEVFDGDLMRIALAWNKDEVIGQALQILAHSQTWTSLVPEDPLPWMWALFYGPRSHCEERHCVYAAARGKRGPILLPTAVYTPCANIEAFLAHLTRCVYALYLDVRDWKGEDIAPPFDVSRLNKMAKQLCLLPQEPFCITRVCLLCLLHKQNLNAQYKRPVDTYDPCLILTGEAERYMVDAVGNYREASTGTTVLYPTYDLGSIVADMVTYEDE

Legend:
[1] = target: FLAG-tagged BGLF3 (wild type) (Epstein-Barr virus) (UniProt P03220); test: co-IP; FLAG-tagged BGLF3 or BGLF3(T42A) as bait with BFRF2 and BVLF1 co-expressed together in 2089 cells; anti-FLAG M2 agarose, 2 h, 4 C; eluted with 3X FLAG peptide; anti-Myc blot
[2] = target: FLAG-tagged BGLF3 (wild type) (Epstein-Barr virus) (UniProt P03220); test: co-IP; FLAG-tagged BGLF3 or BGLF3(T42A) as bait with one partner (BcRF1, BFRF2 or BVLF1) co-expressed in 2089 cells; anti-FLAG M2 agarose, 2 h, 4 C; lysis buffer 20 mM Tris-HCl pH 7.5, 150 mM NaCl, 1 mM EDTA, 1 mM EGTA, 1% Triton; eluted with 3X FLAG peptide; anti-Myc blot; ZEBRA co-transfected in the BcRF1 experiment

B1: BFRF2 (protein, UniProt P14347 1-591)
chain: MALFLARHTLSGTGAGCHGRGPAPDVSEVDLTLQALGERGFSRLLDLGLACLDLSYVEMREFVVWGRPPASEAAVASTPGSLFRSHSSAYWLSEVERPGGLVRWARSQTSPSSLTLAPHLGPSLLSLSVVTGGGCGAVAFCNAFFLAYFLVVRSVFPAFSDRIAAWICDRSPFCENTRAVARGYRGLVKRFLAFVFERSSYDPPLLRQNSRPVERCFAIKNYVPGLDSQSCVTVPSFSRWAQSHASELDPREIRDRVTPATAPSFVADHASALLASLQKKASDTPCGNPIQWMWYRLLVNSCLRSAHCLLPIPAVSEGGRKTGGGVGEELVGAGGPCLSRDVFVAIVSRNVLSCLLNVPAAGPRAYKCFRSHASRPVSGPDYPPLAVFCMDCGYCLNFGKQTGVGGRLNSFRPTLQFYPRDQKEKHVLTCHASGRVYCSNCGSAAVGCQRLAEPPSARSGWRPRIRAVLPHNAAYELDRGSRLLDAIIPCLGPDRTCMRPVVLRGVTVRQLLYLTLRTEARAVCSICQQRQAPEDARDEPHLFSSCLEVELPPGERCAGCRLYQTRYGTPAAQAHPPGEAGGGFSRQSPAS
- binding [1]: binds
- binding [2]: binds
